A word on the pIC50: it is the IC50 on a negative log10 scale, so that one unit is a factor of ten.

Consider one molecule from ChEMBL document CHEMBL2331249, “Cytotoxicity of lapachol, β-lapachone and related synthetic 1,4-naphthoquinones against oesophageal cancer cells” (Eur J Med Chem, 2013).

This test in a line: Cytotoxicity against human WHCO1 cells after 48 hrs by MTT assay. The conditions noted are these: WHCO1, 48 h.

Each structure is given as a SMILES string. pIC50: −log10 of the molar value.

The molecule `COc1cccc2c1C(=O)c1c(O)c3c(c(O)c1C2=O)C[C@@](O)(C(=O)CO)C[C@@H]3O[C@H]1C[C@H](N)[C@H](O)[C@H](C)O1` [DOXORUBICIN] showed a pIC50 of 6.30.
